Experimental data taken from patent US8168681B2, “Amidoacetonitrile compounds and pesticidal composition thereof” (Novartis AG, priority 2008, dated 2012).
Some entries share one result that the patent states for a list of compounds.

Columns and labels:
[1] = tested on: Haemonchus contortus; experiment: In-vivo test on Mongolian gerbils using peroral application; parameters: species or system Mongolian gerbils (Meriones unguiculatus); conditions: gerbil, dose of 1 mg/kg, worm count 3 days after treatment
Method: (§1) Six to eight week old Mongolian gerbils are infected through a stomach tube with ca. 2000 third instar larvae each of T. colubriformis and H. contortus. 6 days after infection, the gerbils are treated by peroral application with the test compounds, dissolved in a mixture of 2 parts DMSO and 1 part polyethylene glycol (PEG 400). On day 9 (3 days after treatment), when most of the H. contortus that are still present are late 4th instar larvae and most of the T. colubriformis are immature adults, the gerbils are killed in order to count the worms. The efficacy is calculated as the % reduction of the number of worms in each gerbil, compared with the geometric average of number of worms from 6 infected and untreated gerbils.
(§2) The above described in-vivo test on Trichostrongylus colubriformis (Tc) and Haemonchus contortus ([…]) was repeated with compounds 1.2, 1.3 and 1.5 from Table 1 and with the compounds of Examples 1a and 3a on pages 22-25 of WO 2008/96231.

[2] = tested on: Trichostrongylus colubriformis; experiment: as above; parameters: species or system Mongolian gerbils (Meriones unguiculatus); conditions: gerbil, dose of 1 mg/kg, worm count 3 days after treatment
Method: as §1, §2

## CC(C#N)(COc1cc(Cl)ccc1Oc1ccc(Cl)cc1Cl)NC(=O)c1ccc(S(F)(F)(F)(F)F)cc1 (centres unmarked) [Compound 1.1, N-[1-cyano-1-methyl-2-(5-chloro-2-{2,4-dichlorophenoxy}-phenoxy)-ethyl]-4-pentafluorothio-benzamide]
[1]
  efficacy (% reduction of number of worms) against H. contortus: more than 95%
[2]
  efficacy (% reduction of number of worms) against T. colubriformis: more than 95%
